Results from doi:10.1101/2024.09.27.615457 (bioRxiv, 2024).
The exact form of at least one protein or probe is not confirmed. Tags and fusion partners may be left off the protein sequences shown.

What was measured:
HY5 (Arabidopsis) = biological target: T1, HY5 (Arabidopsis) (UniProt O24646); assay: EMSA
T1 sequence (looked up, limits assumed): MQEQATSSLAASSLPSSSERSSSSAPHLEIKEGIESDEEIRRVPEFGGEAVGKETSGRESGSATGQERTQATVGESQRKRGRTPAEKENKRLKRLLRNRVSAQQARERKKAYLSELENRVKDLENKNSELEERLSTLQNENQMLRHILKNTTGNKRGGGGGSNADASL

[1] = biological target: T2, bHLH107 (Arabidopsis thaliana (Col-0)) (UniProt Q9LET0); assay: EMSA
T2 sequence (looked up, limits assumed): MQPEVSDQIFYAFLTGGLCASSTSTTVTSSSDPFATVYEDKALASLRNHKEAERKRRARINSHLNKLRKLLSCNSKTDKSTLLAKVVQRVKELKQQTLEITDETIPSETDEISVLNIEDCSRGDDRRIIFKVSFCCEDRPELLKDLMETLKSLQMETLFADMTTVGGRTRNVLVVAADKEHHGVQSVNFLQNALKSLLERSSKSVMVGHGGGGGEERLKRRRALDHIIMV

Row | Sequence | binding result (HY5 (Arabidopsis)) | binding result [1]
1 | GGTATGTTCCGACACGTTTCCGGCGAGAAC (double strand) [G-box2] | binds | –
2 | CCAAAAGAAGAAGAAAAACCAAAAGAAGAAGAAAAA (double strand) [CuRE] | – | binds
3 | AAACTGAAAAACACGTTGTTAGTTTATATG (double strand) [G-box1] | binds | –
